Record: PubChem BioAssay AID686938 (Drosophila RNAi Screening Center, 2013)

Test: 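Looking for CRAC channel components and the factors controlling them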 (primary screen)
Cells: Drosophila S2R+ cells
Knock-down reagent: long dsRNA against Drosophila genes, about 0.25 µg dsRNA per well, roughly 10,000 cells
Duration: 5 days of knock-down before the calcium assay
Conditions: thapsigargin (SERCA pump blocker) to empty calcium stores; entry signal taken 4 min after adding it
Detection: 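Duplicate raw fluo-4 intensities per well from a plate reader, at rest and four minutes after thapsigargin emptied calcium stores; entry-to-rest ratio filled for only some wells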
Reading the numbers: calcium entry signal: higher = stronger calcium signal after store depletion; resting calcium signal: higher = higher resting calcium signal
Units: calcium entry signal in fluorescence units; resting calcium signal in fluorescence units
Hit rule: 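Hit if the duplicate-averaged plate z-score for entry over resting signal is under −3; wells with weak total dye signal (Fmax z < −2) or more than 5 off-targets removed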
Calls: active = strongly reduced calcium entry; inactive = no strong reduction
In all, the deposit lists about 23,000 reagents; this is a random part of those that have a named target and a result. Over the whole deposit, 75 (0.33%) got an active call. 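Raw plate signals without normalisation; calls rest on plate z-scores that were not deposited; ratio present for only 364 wells.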 Reagents against one gene are numbered here. Reagent sequences are not shown. Not stated in the record: the dose of the treatment.

After knock-down of EloB (Elongin B), the screen gave calcium entry signal, replicate 1 = 2.56e7; calcium entry signal, replicate 2 = 3.94e7; resting calcium signal, replicate 1 = 1.61e7; resting calcium signal, replicate 2 = 5.91e7; inactive. After knock-down of CG33143 #1, the screen gave calcium entry signal, replicate 1 = 3.27e7; calcium entry signal, replicate 2 = 2.98e7; resting calcium signal, replicate 1 = 1.61e7; resting calcium signal, replicate 2 = 1.51e7; inactive. CG33143 #2 gave calcium entry signal, replicate 1 = 3.07e7; calcium entry signal, replicate 2 = 3.37e7; resting calcium signal, replicate 1 = 1.62e7; resting calcium signal, replicate 2 = 1.57e7; inactive. Against CG33322, the values are calcium entry signal, replicate 1 = 4.58e7; calcium entry signal, replicate 2 = 5.61e7; resting calcium signal, replicate 1 = 2.06e7; resting calcium signal, replicate 2 = 2.29e7; inactive. Against CG10208 the deposit lists calcium entry signal, replicate 1 = 4.99e7; calcium entry signal, replicate 2 = 3.62e7; resting calcium signal, replicate 1 = 2.19e7; resting calcium signal, replicate 2 = 1.65e7; inactive. For CG2972 the deposit lists calcium entry signal, replicate 1 = 2.87e7; calcium entry signal, replicate 2 = 2.97e7; resting calcium signal, replicate 1 = 1.51e7; resting calcium signal, replicate 2 = 1.55e7; inactive.

For CG14196, the entry reads calcium entry signal, replicate 1 = 5.86e7; calcium entry signal, replicate 2 = 4.90e7; resting calcium signal, replicate 1 = 2.81e7; resting calcium signal, replicate 2 = 2.31e7; inactive. After knock-down of CG8665, the record shows calcium entry signal, replicate 1 = 3.75e7; calcium entry signal, replicate 2 = 6.84e7; resting calcium signal, replicate 1 = 1.69e7; resting calcium signal, replicate 2 = 2.73e7; inactive. Against CG46385 #1, the entry reads calcium entry signal, replicate 1 = 2.44e7; calcium entry signal, replicate 2 = 3.29e7; resting calcium signal, replicate 1 = 1.47e7; resting calcium signal, replicate 2 = 1.70e7; inactive. Silencing of CG46385 #2 came out at: calcium entry signal, replicate 1 = 3.81e7; calcium entry signal, replicate 2 = 4.24e7; resting calcium signal, replicate 1 = 1.70e7; resting calcium signal, replicate 2 = 1.66e7; inactive. For Srp54k (Signal recognition particle 54k), the entry reads calcium entry signal, replicate 1 = 2.78e7; calcium entry signal, replicate 2 = 3.93e7; resting calcium signal, replicate 1 = 1.54e7; resting calcium signal, replicate 2 = 2.02e7; inactive. Knock-down of ken (ken and barbie) #1 resulted in: calcium entry signal, replicate 1 = 2.10e7; resting calcium signal, replicate 1 = 1.32e7; inactive.

Against ken (ken and barbie) #2, the values are calcium entry signal, replicate 1 = 5.07e7; calcium entry signal, replicate 2 = 3.25e7; resting calcium signal, replicate 1 = 2.59e7; resting calcium signal, replicate 2 = 1.74e7; inactive. Against Dsk (Drosulfakinin), the values are calcium entry signal, replicate 1 = 3.02e7; calcium entry signal, replicate 2 = 4.60e7; resting calcium signal, replicate 1 = 1.50e7; resting calcium signal, replicate 2 = 2.11e7; inactive. For me31B (maternal expression at 31B), the entry reads calcium entry signal, replicate 1 = 3.28e7; resting calcium signal, replicate 1 = 2.16e7; inactive. Silencing of Vps45 (Vacuolar protein sorting 45) gave: calcium entry signal, replicate 1 = 4.74e7; calcium entry signal, replicate 2 = 3.89e7; resting calcium signal, replicate 1 = 2.56e7; resting calcium signal, replicate 2 = 2.24e7; inactive. Silencing of CG32811 gave: calcium entry signal, replicate 1 = 3.82e7; calcium entry signal, replicate 2 = 3.08e7; resting calcium signal, replicate 1 = 2.33e7; resting calcium signal, replicate 2 = 1.55e7; inactive. After knock-down of CG14015 the results were calcium entry signal, replicate 1 = 2.07e7; calcium entry signal, replicate 2 = 1.80e7; resting calcium signal, replicate 1 = 1.12e7; resting calcium signal, replicate 2 = 8.68e6; inactive.

2 entries from above, reformatted.
Target gene,reagent no.,"calcium entry signal, replicate 1","calcium entry signal, replicate 2","resting calcium signal, replicate 1","resting calcium signal, replicate 2",outcome
CG33143,1,3.27e7,2.98e7,1.61e7,1.51e7,inactive
CG33143,2,3.07e7,3.37e7,1.62e7,1.57e7,inactive

Continued:
Knock-down of CG31016 came out at: calcium entry signal, replicate 1 = 3.00e7; calcium entry signal, replicate 2 = 3.72e7; resting calcium signal, replicate 1 = 1.71e7; resting calcium signal, replicate 2 = 1.62e7; inactive. Against CG12091, the entry reads calcium entry signal, replicate 1 = 3.46e7; calcium entry signal, replicate 2 = 3.81e7; resting calcium signal, replicate 1 = 1.73e7; resting calcium signal, replicate 2 = 1.79e7; inactive. Against Dhc36C (Dynein heavy chain at 36C), the values are calcium entry signal, replicate 1 = 5.60e7; calcium entry signal, replicate 2 = 3.41e7; resting calcium signal, replicate 1 = 2.27e7; resting calcium signal, replicate 2 = 1.78e7; inactive. Knock-down of Not1 #1 gave: calcium entry signal, replicate 1 = 3.84e7; calcium entry signal, replicate 2 = 3.85e7; resting calcium signal, replicate 1 = 1.77e7; resting calcium signal, replicate 2 = 1.74e7; inactive. Against Not1 #2, the entry reads calcium entry signal, replicate 1 = 2.74e7; calcium entry signal, replicate 2 = 2.30e7; resting calcium signal, replicate 1 = 1.40e7; resting calcium signal, replicate 2 = 1.15e7; inactive. Gsc (Goosecoid) showed calcium entry signal, replicate 1 = 3.00e7; calcium entry signal, replicate 2 = 4.06e7; resting calcium signal, replicate 1 = 1.54e7; resting calcium signal, replicate 2 = 1.82e7; inactive.

With knock-down of Idh (Isocitrate dehydrogenase), the screen gave calcium entry signal, replicate 1 = 3.97e7; calcium entry signal, replicate 2 = 2.90e7; resting calcium signal, replicate 1 = 2.54e7; resting calcium signal, replicate 2 = 1.17e7; inactive. Knock-down of mRpL18 (mitochondrial ribosomal protein L18) resulted in: calcium entry signal, replicate 1 = 4.27e7; calcium entry signal, replicate 2 = 3.63e7; resting calcium signal, replicate 1 = 1.94e7; resting calcium signal, replicate 2 = 1.44e7; inactive. With knock-down of CG14377 the results were calcium entry signal, replicate 1 = 3.11e7; calcium entry signal, replicate 2 = 3.75e7; resting calcium signal, replicate 1 = 1.53e7; resting calcium signal, replicate 2 = 6.48e7; inactive.
